Some of the results follow.
Key:
Test in all cases: log2 fold change, soluble protein after heating vs DMSO (PISA); higher = thermal stabilisation; K562 lysate, 10 uM; active = over 0.2 and 3.5 SD of the protein, either way, in both replicates (recomputed)
[1] = compound: O=C1NC(=O)C(c2cnc3ccccn23)=C1c1cn2c3c(cc(F)cc13)CN(C(=O)N1CCCCC1)CC2
In short: (§1)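 Following dounce homogenisation of K562 pellets in PBS pH 7.4 with 1 mM MgCl2, crude extract at 1 mg/mL protein was incubated for 30 min with 10 μM compound. Aliquots were then heated for 3 min over 48°C-58°C and pooled, NP-40 was added to 0.5% at 4°C, and soluble protein was recovered as the supernatant at 21,000xg for 90 min. Channel-sum-equalised TMTpro 16plex LC-MS/MS quantified this protein. Each value, from duplicates, is a log-two fold change in thermal stability relative to solvent controls.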

Amino acid sequences for entries named in this document (tags omitted). A change or cut given only in a name is not applied to a line headed by its entry.
UniProt Q8NFZ0: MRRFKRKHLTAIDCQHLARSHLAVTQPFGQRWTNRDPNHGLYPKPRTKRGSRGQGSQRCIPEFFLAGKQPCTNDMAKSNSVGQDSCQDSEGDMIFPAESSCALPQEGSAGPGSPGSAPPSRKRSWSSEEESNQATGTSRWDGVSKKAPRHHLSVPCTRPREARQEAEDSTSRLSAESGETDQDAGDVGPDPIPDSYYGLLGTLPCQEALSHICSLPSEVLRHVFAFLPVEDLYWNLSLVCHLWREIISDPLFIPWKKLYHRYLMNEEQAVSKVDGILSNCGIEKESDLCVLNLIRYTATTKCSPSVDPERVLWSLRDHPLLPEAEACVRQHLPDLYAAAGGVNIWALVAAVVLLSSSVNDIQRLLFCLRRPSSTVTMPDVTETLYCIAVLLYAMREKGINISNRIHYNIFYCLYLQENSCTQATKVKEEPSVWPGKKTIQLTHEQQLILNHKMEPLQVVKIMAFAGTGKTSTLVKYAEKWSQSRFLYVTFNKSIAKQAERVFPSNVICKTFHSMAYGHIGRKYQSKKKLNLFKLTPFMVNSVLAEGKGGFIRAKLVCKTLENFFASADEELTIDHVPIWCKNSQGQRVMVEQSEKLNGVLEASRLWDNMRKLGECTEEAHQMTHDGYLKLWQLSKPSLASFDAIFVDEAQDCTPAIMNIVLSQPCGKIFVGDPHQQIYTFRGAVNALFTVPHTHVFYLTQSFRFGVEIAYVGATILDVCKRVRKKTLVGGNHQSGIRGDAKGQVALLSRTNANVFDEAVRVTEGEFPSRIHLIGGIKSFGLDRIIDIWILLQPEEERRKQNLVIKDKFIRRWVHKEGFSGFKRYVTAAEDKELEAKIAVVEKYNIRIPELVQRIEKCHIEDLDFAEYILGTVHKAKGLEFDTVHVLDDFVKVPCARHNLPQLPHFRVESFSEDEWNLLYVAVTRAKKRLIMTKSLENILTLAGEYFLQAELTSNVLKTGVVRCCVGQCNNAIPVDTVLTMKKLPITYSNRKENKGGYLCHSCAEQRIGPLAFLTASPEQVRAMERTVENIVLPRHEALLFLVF
UniProt Q92913: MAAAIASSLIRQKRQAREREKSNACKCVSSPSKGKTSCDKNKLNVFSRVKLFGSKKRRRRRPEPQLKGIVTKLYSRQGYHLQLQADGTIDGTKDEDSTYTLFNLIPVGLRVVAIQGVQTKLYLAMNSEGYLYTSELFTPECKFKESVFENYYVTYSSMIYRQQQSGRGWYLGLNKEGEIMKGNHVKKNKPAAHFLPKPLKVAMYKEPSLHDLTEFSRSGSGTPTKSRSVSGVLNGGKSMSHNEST
UniProt Q14517: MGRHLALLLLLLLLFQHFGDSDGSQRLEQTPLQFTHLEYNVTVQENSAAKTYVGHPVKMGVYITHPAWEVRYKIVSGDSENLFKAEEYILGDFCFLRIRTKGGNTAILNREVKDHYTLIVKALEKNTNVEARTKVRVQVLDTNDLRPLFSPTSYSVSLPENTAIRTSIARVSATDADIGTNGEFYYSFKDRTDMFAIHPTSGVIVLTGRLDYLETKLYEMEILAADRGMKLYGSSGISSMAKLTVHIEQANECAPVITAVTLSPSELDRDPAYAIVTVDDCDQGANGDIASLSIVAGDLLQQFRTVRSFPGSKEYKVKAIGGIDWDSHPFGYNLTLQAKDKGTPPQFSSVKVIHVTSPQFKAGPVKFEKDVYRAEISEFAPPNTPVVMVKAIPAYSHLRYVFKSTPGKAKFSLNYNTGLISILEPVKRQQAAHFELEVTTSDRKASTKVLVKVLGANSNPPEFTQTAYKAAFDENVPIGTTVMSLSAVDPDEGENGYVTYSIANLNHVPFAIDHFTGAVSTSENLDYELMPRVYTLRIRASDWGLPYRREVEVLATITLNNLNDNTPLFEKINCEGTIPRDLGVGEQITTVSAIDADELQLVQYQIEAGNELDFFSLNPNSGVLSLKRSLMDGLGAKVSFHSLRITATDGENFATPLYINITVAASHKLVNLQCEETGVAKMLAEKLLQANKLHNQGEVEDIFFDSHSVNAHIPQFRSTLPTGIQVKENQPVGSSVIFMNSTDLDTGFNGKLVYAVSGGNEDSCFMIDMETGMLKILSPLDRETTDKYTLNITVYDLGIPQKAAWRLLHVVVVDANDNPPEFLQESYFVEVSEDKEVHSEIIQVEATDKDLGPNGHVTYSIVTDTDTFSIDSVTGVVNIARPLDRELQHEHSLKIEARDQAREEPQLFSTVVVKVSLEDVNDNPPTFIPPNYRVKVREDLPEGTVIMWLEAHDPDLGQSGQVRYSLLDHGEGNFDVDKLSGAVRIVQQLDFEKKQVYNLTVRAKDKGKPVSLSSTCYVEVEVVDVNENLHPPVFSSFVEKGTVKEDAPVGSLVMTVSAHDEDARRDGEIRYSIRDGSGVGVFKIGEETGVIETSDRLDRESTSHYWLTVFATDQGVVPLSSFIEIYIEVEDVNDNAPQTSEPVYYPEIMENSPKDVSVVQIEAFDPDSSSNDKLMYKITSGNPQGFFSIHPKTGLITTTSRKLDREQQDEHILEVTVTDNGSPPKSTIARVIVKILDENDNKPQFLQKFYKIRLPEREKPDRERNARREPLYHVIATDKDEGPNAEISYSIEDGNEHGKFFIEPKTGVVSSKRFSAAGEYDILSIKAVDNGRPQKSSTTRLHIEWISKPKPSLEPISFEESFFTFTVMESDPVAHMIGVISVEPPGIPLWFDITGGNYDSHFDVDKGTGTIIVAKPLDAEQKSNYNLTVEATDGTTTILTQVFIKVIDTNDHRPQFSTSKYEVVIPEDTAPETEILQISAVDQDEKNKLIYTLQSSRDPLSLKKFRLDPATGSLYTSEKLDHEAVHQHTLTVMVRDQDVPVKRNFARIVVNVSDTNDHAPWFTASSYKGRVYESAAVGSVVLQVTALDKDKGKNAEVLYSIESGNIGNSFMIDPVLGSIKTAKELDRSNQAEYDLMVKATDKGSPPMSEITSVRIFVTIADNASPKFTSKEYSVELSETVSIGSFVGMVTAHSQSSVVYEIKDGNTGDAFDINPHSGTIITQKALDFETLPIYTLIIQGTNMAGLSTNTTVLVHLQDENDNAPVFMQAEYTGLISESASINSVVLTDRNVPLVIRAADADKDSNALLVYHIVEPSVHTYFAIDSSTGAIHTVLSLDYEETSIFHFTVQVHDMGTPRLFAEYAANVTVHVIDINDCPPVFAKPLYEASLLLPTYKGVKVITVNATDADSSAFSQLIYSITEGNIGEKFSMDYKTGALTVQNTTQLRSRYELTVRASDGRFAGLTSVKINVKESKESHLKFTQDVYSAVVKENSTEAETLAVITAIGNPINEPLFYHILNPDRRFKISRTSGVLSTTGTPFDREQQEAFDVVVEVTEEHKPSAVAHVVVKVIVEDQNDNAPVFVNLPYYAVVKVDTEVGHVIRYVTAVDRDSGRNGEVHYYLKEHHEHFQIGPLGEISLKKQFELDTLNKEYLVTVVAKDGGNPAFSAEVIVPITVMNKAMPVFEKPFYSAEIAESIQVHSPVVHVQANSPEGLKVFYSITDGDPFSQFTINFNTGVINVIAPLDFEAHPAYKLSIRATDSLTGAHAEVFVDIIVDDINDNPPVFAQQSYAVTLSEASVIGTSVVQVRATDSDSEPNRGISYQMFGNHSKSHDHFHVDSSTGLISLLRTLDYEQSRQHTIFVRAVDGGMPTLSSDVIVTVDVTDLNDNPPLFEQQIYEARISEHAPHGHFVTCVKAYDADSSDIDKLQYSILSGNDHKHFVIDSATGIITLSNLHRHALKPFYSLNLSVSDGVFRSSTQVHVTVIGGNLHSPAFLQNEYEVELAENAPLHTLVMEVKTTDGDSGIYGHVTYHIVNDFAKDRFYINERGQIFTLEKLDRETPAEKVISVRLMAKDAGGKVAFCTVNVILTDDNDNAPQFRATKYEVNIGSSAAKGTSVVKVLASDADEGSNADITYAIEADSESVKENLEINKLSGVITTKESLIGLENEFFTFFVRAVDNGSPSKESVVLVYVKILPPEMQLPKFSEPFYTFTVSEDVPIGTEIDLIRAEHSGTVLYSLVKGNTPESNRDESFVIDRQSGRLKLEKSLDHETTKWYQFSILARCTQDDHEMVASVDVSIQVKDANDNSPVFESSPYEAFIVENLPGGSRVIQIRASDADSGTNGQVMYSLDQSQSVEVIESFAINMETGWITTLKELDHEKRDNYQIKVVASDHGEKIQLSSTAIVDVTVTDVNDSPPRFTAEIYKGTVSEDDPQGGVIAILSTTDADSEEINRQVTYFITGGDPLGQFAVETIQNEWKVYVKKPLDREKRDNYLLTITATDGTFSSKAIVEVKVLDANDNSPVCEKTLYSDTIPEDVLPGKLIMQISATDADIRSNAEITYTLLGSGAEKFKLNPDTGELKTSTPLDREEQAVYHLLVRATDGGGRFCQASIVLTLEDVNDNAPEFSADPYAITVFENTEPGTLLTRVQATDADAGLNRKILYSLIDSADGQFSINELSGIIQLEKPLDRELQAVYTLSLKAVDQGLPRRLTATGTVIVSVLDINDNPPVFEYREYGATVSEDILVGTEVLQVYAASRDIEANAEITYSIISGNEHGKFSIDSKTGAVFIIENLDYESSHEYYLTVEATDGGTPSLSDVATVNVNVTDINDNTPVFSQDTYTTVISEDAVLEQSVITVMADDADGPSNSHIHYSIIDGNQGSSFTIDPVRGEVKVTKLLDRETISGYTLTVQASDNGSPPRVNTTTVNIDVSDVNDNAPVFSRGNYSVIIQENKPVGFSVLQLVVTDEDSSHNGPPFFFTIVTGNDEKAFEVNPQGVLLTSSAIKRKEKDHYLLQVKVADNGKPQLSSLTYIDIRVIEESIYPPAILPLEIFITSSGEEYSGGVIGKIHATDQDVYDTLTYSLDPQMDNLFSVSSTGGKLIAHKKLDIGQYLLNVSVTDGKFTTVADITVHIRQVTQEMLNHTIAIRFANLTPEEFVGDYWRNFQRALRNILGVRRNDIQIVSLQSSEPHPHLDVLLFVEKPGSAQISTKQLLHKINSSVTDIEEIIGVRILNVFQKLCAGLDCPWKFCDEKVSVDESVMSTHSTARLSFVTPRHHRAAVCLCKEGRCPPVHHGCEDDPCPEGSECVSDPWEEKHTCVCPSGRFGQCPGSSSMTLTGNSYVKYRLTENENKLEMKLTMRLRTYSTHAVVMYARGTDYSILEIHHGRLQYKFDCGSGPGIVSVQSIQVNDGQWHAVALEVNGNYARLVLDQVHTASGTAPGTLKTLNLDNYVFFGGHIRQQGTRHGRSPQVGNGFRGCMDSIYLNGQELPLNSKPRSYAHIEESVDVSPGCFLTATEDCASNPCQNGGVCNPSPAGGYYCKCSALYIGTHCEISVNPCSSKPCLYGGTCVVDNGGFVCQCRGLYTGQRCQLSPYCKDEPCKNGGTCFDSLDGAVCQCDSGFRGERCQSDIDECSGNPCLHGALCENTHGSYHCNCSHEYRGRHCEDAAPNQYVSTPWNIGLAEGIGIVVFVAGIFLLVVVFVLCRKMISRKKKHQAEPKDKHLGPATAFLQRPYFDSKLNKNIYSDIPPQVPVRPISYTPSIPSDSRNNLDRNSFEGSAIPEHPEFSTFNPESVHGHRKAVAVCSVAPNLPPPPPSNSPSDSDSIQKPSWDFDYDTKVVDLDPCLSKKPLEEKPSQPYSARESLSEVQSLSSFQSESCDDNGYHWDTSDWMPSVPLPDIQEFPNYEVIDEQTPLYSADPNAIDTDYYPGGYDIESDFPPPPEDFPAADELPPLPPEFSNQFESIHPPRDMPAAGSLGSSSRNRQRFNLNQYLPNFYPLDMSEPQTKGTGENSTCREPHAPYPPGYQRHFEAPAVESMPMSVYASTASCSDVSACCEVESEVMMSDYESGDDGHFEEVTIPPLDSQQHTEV
UniProt Q14CZ7: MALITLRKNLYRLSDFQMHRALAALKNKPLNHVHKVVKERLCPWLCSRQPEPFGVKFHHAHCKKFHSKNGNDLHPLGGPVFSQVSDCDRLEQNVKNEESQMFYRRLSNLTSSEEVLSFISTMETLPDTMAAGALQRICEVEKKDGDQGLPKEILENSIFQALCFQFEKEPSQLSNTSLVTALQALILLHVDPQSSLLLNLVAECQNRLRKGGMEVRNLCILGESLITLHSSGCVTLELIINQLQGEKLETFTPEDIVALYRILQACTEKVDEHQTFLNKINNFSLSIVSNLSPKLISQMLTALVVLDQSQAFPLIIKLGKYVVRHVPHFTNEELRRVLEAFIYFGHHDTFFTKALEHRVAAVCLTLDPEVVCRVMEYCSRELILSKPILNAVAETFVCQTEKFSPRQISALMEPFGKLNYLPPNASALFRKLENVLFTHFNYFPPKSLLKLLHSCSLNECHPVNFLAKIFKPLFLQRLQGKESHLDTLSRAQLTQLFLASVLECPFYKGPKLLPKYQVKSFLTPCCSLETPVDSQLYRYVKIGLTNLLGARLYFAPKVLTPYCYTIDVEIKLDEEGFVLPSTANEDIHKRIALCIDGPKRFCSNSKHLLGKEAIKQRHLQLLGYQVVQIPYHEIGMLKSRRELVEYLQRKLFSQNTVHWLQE

entospletinib = compound: c1cn2cc(-c3ccc4cn[nH]c4c3)nc(Nc3ccc(N4CCOCC4)cc3)c2n1 [entospletinib]
In short: as §1

[2] = compound: NCC(=O)Nc1ccc(-n2nc(C(F)(F)F)cc2-c2ccc3c(ccc4ccccc43)c2)cc1
In short: as §1

vorinostat = compound: O=C(CCCCCCC(=O)Nc1ccccc1)NO [vorinostat]
In short: as §1

silmitasertib = compound: O=C(O)c1ccc2c(c1)nc(Nc1cccc(Cl)c1)c1ccncc12 [silmitasertib]
In short: as §1

## FCGR2B (UniProt P31994)
[1]
  log2 fold change: inactive: -0.003
entospletinib
  log2 fold change: inactive: -0.087

## FER isoform 3 (UniProt P16591)
[1]
  log2 fold change: inactive: 0

## FCF1 (UniProt Q9Y324)
[1]
  log2 fold change: inactive: 0.089

## FAM83H (UniProt Q6ZRV2)
[2]
  log2 fold change: inactive: 0.03
entospletinib
  log2 fold change: inactive: 0.127

## FANCG (UniProt O15287)
[2]
  log2 fold change: inactive: 0.123
[1]
  log2 fold change: inactive: -0.009
entospletinib
  log2 fold change: inactive: -0.003

## FBXW11 (UniProt Q9UKB1)
vorinostat
  log2 fold change: inactive: -0.217
silmitasertib
  log2 fold change: inactive: 0.088
[1]
  log2 fold change: inactive: 0.015
entospletinib
  log2 fold change: inactive: -0.074

## FMNL2 isoform 3 (UniProt Q96PY5)
vorinostat
  log2 fold change: active: -0.587
silmitasertib
  log2 fold change: inactive: -0.027
[1]
  log2 fold change: inactive: 0.045

## FEN1 (UniProt I3L3E9)
[2]
  log2 fold change: inactive: -0.055
entospletinib
  log2 fold change: inactive: -0.089

## FLYWCH1 isoform 3 (UniProt Q4VC44)
[1]
  log2 fold change: inactive: 0.022

## FARP2 (UniProt O94887)
vorinostat
  log2 fold change: inactive: 0.029
silmitasertib
  log2 fold change: inactive: -0.017
[1]
  log2 fold change: inactive: 0.038

## FBH1 isoform 2 (UniProt Q8NFZ0)
[1]
  log2 fold change: inactive: 0.137

## FGF13 isoform 3 (UniProt Q92913)
vorinostat
  log2 fold change: inactive: 0.106
silmitasertib
  log2 fold change: inactive: -0.111
[1]
  log2 fold change: inactive: -0.009
entospletinib
  log2 fold change: inactive: 0.022

## FIP1L1 isoform 3 (UniProt Q6UN15)
vorinostat
  log2 fold change: inactive: 0.048
silmitasertib
  log2 fold change: inactive: -0.002
[1]
  log2 fold change: inactive: -0.037
entospletinib
  log2 fold change: inactive: 0.024

## FOXJ2 (UniProt Q9P0K8)
vorinostat
  log2 fold change: inactive: -0.208
silmitasertib
  log2 fold change: inactive: -0.058
entospletinib
  log2 fold change: inactive: 0.033

## FAT1 (UniProt Q14517)
vorinostat
  log2 fold change: inactive: -0.229
silmitasertib
  log2 fold change: inactive: 0.077
[1]
  log2 fold change: inactive: -0.196
entospletinib
  log2 fold change: inactive: -0.034

## FBLN1 (UniProt P23142)
[2]
  log2 fold change: inactive: -0.041
[1]
  log2 fold change: inactive: -0.052

## FOSL1 (UniProt P15407)
[1]
  log2 fold change: inactive: 0.038

## FARP1 isoform 2 (UniProt Q9Y4F1)
[2]
  log2 fold change: inactive: 0.059
[1]
  log2 fold change: inactive: 0.034
entospletinib
  log2 fold change: inactive: 0.015

## FANCA (UniProt O15360)
[2]
  log2 fold change: inactive: 0.046
[1]
  log2 fold change: inactive: -0.249
entospletinib
  log2 fold change: inactive: -0.032

## FANCF (UniProt Q9NPI8)
[1]
  log2 fold change: inactive: -0.114

## FGFR1OP2 isoform 2 (UniProt Q9NVK5)
[1]
  log2 fold change: inactive: 0.048

## FBXL19 (UniProt Q6PCT2)
vorinostat
  log2 fold change: inactive: 0.022
silmitasertib
  log2 fold change: inactive: 0.044
[1]
  log2 fold change: inactive: 0.06

## FKBP10 (UniProt Q96AY3)
entospletinib
  log2 fold change: inactive: 0.012

## FILIP1L (UniProt Q4L180)
entospletinib
  log2 fold change: inactive: -0.003

## FMR1 isoform 9 (UniProt Q06787)
vorinostat
  log2 fold change: inactive: 0.274
silmitasertib
  log2 fold change: inactive: -0.091
[1]
  log2 fold change: inactive: 0.233

## FANCC (UniProt Q00597)
vorinostat
  log2 fold change: inactive: 0.098
silmitasertib
  log2 fold change: inactive: 0.206
[1]
  log2 fold change: inactive: -0.14

## FBXO46 (UniProt Q6PJ61)
[2]
  log2 fold change: inactive: -0.093
[1]
  log2 fold change: inactive: -0.011
entospletinib
  log2 fold change: inactive: 0.019

## FNDC3A (UniProt Q9Y2H6)
vorinostat
  log2 fold change: inactive: -0.018
silmitasertib
  log2 fold change: inactive: -0.119
[1]
  log2 fold change: inactive: -0.146

## FOPNL (UniProt Q96NB1)
[2]
  log2 fold change: inactive: 0.01
[1]
  log2 fold change: inactive: -0.029
entospletinib
  log2 fold change: inactive: -0.009

## FLII isoform 2 (UniProt Q13045)
[2]
  log2 fold change: inactive: 0.141
entospletinib
  log2 fold change: inactive: -0.014

## FASTKD3 (UniProt Q14CZ7)
entospletinib
  log2 fold change: inactive: 0.008

## FMR1NB (UniProt Q8N0W7)
[1]
  log2 fold change: inactive: -0.073

## FBXO11 isoform 5 (UniProt Q86XK2)
vorinostat
  log2 fold change: inactive: -0.383
silmitasertib
  log2 fold change: inactive: -0.277
[1]
  log2 fold change: inactive: 0.054

## FAXDC2 (UniProt Q96IV6)
vorinostat
  log2 fold change: inactive: 0.058
silmitasertib
  log2 fold change: inactive: -0.15
[1]
  log2 fold change: inactive: 0.081
entospletinib
  log2 fold change: inactive: 0.001

## FOS (UniProt P01100)
entospletinib
  log2 fold change: inactive: 0.003

Reference: the supplement of paper PMC10849652
